Experimental data from patent US10688080B2, “Compositions, methods of use, and methods of treatment” (priority 2016, dated 2020).
The name of at least one read-out is uncertain.

The chains behind the UniProt entries cited, without tags or fusion partners. Residues count along the entry.
UniProt Q9L5C7, 29-291, species assumed: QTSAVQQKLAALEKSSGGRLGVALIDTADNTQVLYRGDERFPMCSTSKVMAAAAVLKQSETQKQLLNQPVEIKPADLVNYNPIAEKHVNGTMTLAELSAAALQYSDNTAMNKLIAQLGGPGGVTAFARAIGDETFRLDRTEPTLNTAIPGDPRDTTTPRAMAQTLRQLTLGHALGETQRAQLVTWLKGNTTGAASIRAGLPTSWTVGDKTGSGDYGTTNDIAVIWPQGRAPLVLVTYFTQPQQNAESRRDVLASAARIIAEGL
UniProt Q9F663, 25-293 limits assumed: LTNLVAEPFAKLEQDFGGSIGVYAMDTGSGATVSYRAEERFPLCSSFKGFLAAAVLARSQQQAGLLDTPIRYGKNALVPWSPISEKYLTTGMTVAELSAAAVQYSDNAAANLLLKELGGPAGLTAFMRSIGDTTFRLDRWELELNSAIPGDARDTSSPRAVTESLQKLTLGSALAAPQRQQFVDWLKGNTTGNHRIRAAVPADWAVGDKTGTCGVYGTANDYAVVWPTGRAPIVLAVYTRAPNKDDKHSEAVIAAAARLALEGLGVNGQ

How the values were obtained:
CTX-M14 = CTX-M14 (Escherichia coli, UniProt Q9L5C7); experiment: Steady-state kinetic nitrocefin hydrolysis inhibition, CTX-M14; format: biochemical; settings: at 2.0 mM
Description: Steady-state kinetic parameters were determined by using a Biotek Cytation 5 Cell Imaging Multi-Mode Reader. For KPC-2 and CTX M-14, each assay was performed in 100 mM Tris-HCl pH 7.0, 0.01% Triton X-100 at 37 C. Vmax and Km were determined from initial steady-state velocities from nitrocefin read at a wavelength of 486 nm. The kinetic parameters were obtained using the non-linear portion of the data to the Henri-Michaelis (equation 1) using Gera version 2.07. V=Vmax[S]/(Km+[S]) (Equation 1)
IC50, defined as the inhibitor concentration that results in a 50% reduction of nitrocefin (20 μM for KPC-2 and 50 μM for CTX M-14) hydrolysis was determined by measurements of initial velocities after mixing 1 nM of KPC-2 or CTX M-14 with increasing concentrations of inhibitors. The inhibition constant (Ki) was calculated according to equation 2: Ki=IC50/([S]/Km+1) (Equation 2)

KPC-2 = molecular target: T1, KPC-2 (Klebsiella pneumoniae, UniProt Q9F663); experiment: Steady-state kinetic nitrocefin hydrolysis inhibition, KPC-2; format: biochemical
T1 construct: made in house; host or cells: bacteria, IPTG-induced
Description: For His tag KPC-2 beta-lactamase, bacteria were grown overnight at 30 C with shaking in 50 mL LB broth supplemented with 50 μg/mL kanamycin. Two liters of LB broth supplemented with 50 μg/mL kanamycin, 200 mM sorbitol, and 5 mM betaine were each inoculated with 10 mL of overnight bacterial culture. Cultures were then grown at 37 C until an optical density at 600 nm (OD600) of 0.6-0.7. Protein expression was then initiated by the addition of IPTG (final concentration 0.5 mM), followed by growth for 16 hr at 20 C. Cells were pelleted by centrifugation and stored at −80 C until further use. The his tag KPC-2 beta-lactamase was purified by nickel affinity chromatography and gel filtration. Briefly, the cell pellets were thawed and re-suspended in 40 mL of buffer A (20 mM Tris-HCl pH 8.0, 300 mM NaCl, 20 mM imidazole) with one complete protease inhibitor cocktail tablet (Roche) and disrupted by sonication, followed by ultracentrifugation to clarify the lysate. After ultracentrifugation, the supernatant was passed through a 0.22 μm filter before loading onto a 5 mL HisTrap HP affinity column (GE Healthcare Life Sciences, USA) pre-equilibrated with buffer A. His tag KPC-2 was eluted by a linear imidazole gradient (20 mM to 500 mM). Fractions were analyzed by SDS-PAGE. Fractions containing his tag KPC-2 were concentrated using a 10 k NMWL Amicon Ultra-15 Centrifugal Filter Unit. Concentrated his tag KPC-2 was then loaded onto a superdex 75 gel filtration column (GE Healthcare Life Sciences) pre-equilibrated with 20 mM Tris-HCl pH 8.0, 300 mM NaCl. Protein concentration was determined by absorbance at 280 using an extinction coefficient of 39,545.
Steady-state kinetic parameters were determined by using a Biotek Cytation 5 Cell Imaging Multi-Mode Reader. For KPC-2 and CTX M-14, each assay was performed in 100 mM Tris-HCl pH 7.0, 0.01% Triton X-100 at 37 C. Vmax and Km were determined from initial steady-state velocities from nitrocefin read at a wavelength of 486 nm. […]

O=C(Nc1nnn[nH]1)c1cn(Cc2cccc(C(F)(F)F)c2)c2ccccc12 [Compound 28]
CTX-M14 inhibition, result in words (Ki column) (CTX-M14): No inhibition at 2.0 mM
KPC-2 inhibition, result in words (Ki column) (KPC-2; at 2.0 mM): No inhibition at 2.0 mM

O=C(Nc1nnn[nH]1)C1CN(S(=O)(=O)c2cccc(C(F)(F)F)c2)c2ccccc21 (stereo not shown) [Compound 26]
KPC-2 inhibition, result in words (Ki column) (KPC-2; at 2.2 mM): No inhbition at 2.2 mM

CC(=O)NC(C(=O)Nc1nnn[nH]1)c1ccccc1 (stereo not shown) [Compound 41]
KPC-2 inhibition, result in words (Ki column) (KPC-2; at 5.2 mM): No inhibition at 5.2 mM
